Laboratory results: PubChem BioAssay AID1259308 (NCATS, 2017)
Shown is a random part of about 59,000 reagents. About 1,510 of them (2.6%) count as active. 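Calls use total luciferase alone and ignore viability, so some active siRNAs may act by altering cell number.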 Unmarked entries are inactive. Not all columns of the deposit are shown.

Aim: 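Candidate targets for better recombinant protein yield in mammalian cells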 (primary screen)
Cells: human HEK293 embryonic kidney cells stably expressing firefly luciferase (HEK-CMV-Luc2-Hygro)
Reagents: single siRNA against human genes, 0.8 pmol siRNA per well
Time to read-out: 72 h
Detection: 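Luciferase light (ONE-Glo) measured on one replicate plate set and viability (CellTiter-Glo) on the other, scaled to a negative control siRNA, with robust z-scores and luciferase per cell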
Scale: total luciferase, z-score and total luciferase, % of control: higher = more reporter protein produced
Rule for the call: 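Active when the median/MAD z-score for overall luciferase is greater than 3; a gene was taken forward for validation with new siRNAs if at least two of its three siRNAs passed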
Meaning of the calls: active = raised luciferase; inactive = no rise

| target | PubChem SID | total luciferase, z-score | total luciferase, % of control |
| --- | --- | --- | --- |
| RO60 | SID160717368 | -0.369 | 74.5 |
| RO60 | SID160717369 | -1.66 | 48.8 |
| RO60 | SID160717370 | -0.498 | 72 |
| CDC26 | SID160732793 | -1.73 | 47.4 |
| CDC26 | SID160762005 | -1.05 | 61.1 |
| CDC26 | SID160762006 | -0.82 | 65.6 |
| MAP6D1 | SID160749793 | 0.536 | 92.5 |
| MAP6D1 | SID160749794 | -0.692 | 68.1 |
| MAP6D1 | SID160749795 | 0.291 | 87.7 |
| CFAP107 | SID160754459 | -0.0393 | 81.1 |
| CFAP107 | SID160754460 | 0.107 | 84 |
| CFAP107 | SID160754461 | -2.45 | 33.2 |
| ING3 | SID160731455 | 2.41 | 130 |
| ING3 | SID160741925 | 0.687 | 95.5 |
| ING3 | SID160741926 | 0.287 | 87.6 |
| SCT | SID160724065 | 0.688 | 95.6 |
| SCT | SID160724066 | -1.24 | 57.2 |
| SCT | SID160724067 | 2.27 | 127 |
| TEAD1 | SID160717887 | -0.366 | 74.6 |
| TEAD1 | SID160717888 | 0.0954 | 83.8 |
| TEAD1 | SID160717889 | 0.308 | 88 |
| LAPTM5 | SID160719367 | 1.08 | 103 |
| LAPTM5 | SID160719368 | -1.5 | 52 |
| LAPTM5 | SID160719369 | -0.384 | 74.3 |
| ZNF140 | SID160719171 | 1.57 | 113 |
| ZNF140 | SID160719172 | 3.98 (active) | 161 |
| ZNF140 | SID160731891 | -0.538 | 71.2 |
| LARP6 | SID160727927 | -0.95 | 63 |
| LARP6 | SID160727928 | 0.496 | 91.8 |
| LARP6 | SID160727929 | -0.662 | 68.7 |
| LRRC43 | SID160762142 | -1.29 | 56.3 |
| LRRC43 | SID160762143 | -0.378 | 74.4 |
| LRRC43 | SID160762144 | -0.201 | 77.9 |
| LTBP4 | SID160720007 | 0.68 | 95.4 |
| LTBP4 | SID160720008 | -0.263 | 76.7 |
| LTBP4 | SID160720009 | 0.167 | 85.2 |
| MDH2 | SID160731224 | 0.441 | 90.7 |
| MDH2 | SID160777086 | -0.0193 | 81.5 |
| MDH2 | SID160777087 | -0.0452 | 81 |
| S100A6 | SID160716290 | 1.59 | 114 |
| S100A6 | SID160724057 | -0.329 | 75.3 |
| S100A6 | SID160724058 | -0.687 | 68.2 |
| ZP1 | SID160733444 | 0.227 | 86.4 |
| ZP1 | SID160733453 | 1.94 | 120 |
| ZP1 | SID160733464 | 0.575 | 93.3 |
| EPC1 | SID160750363 | -0.195 | 78 |
| EPC1 | SID160750364 | 1.4 | 110 |
| EPC1 | SID160750367 | 1.58 | 113 |
| PITPNB | SID160736843 | -0.399 | 74 |
| PITPNB | SID160736844 | -0.855 | 64.9 |
| PITPNB | SID160736845 | -0.757 | 66.8 |
| PCDH19 | SID160746182 | 1.04 | 103 |
| PCDH19 | SID160746183 | -1.62 | 49.7 |
| PCDH19 | SID160746184 | -0.814 | 65.7 |
| SPATA19 | SID160761403 | -0.593 | 70.1 |
| SPATA19 | SID160761404 | -0.8 | 66 |
| SPATA19 | SID160761405 | 0.334 | 88.5 |
| TRERF1 | SID160744416 | -0.156 | 78.8 |
| TRERF1 | SID160744417 | 0.356 | 89 |
| TRERF1 | SID160744418 | 2.18 | 125 |
| NR2F6 | SID160723750 | -0.922 | 63.5 |
| NR2F6 | SID160761388 | -0.715 | 67.7 |
| NR2F6 | SID160761399 | -0.902 | 64 |
| TSG101 | SID160718386 | 0.219 | 86.2 |
| TSG101 | SID160718388 | 0.976 | 101 |
| TSG101 | SID160718389 | -0.0122 | 81.6 |
| EN2 | SID160760337 | -0.0467 | 81 |
| EN2 | SID160760347 | 1.64 | 114 |
| EN2 | SID160760357 | -0.84 | 65.2 |
| CD1D | SID160738116 | -0.547 | 71 |
| CD1D | SID160738126 | 0.518 | 92.2 |
| CD1D | SID160738136 | -0.626 | 69.4 |
| PINK1 | SID160748217 | -1.28 | 56.5 |
| PINK1 | SID160748218 | 1.37 | 109 |
| PINK1 | SID160748219 | 2.22 | 126 |

Only “total luciferase, % of control”, for 11 of the entries above:
TEAD1 [SID160717889] = 88
LAPTM5 [SID160719367] = 103
LAPTM5 [SID160719368] = 52
LAPTM5 [SID160719369] = 74.3
ZNF140 [SID160719171] = 113
ZNF140 [SID160719172] = 161 (active)
ZNF140 [SID160731891] = 71.2
LARP6 [SID160727927] = 63
LARP6 [SID160727928] = 91.8
LARP6 [SID160727929] = 68.7
LRRC43 [SID160762142] = 56.3
